This experiment has as its target human thiamine transporter SLC19A3, wildtype (human) (UniProt Q9BZV2). Description: SEC.

The chains behind the UniProt entries cited, without tags or fusion partners.
UniProt Q9BZV2, whole entry: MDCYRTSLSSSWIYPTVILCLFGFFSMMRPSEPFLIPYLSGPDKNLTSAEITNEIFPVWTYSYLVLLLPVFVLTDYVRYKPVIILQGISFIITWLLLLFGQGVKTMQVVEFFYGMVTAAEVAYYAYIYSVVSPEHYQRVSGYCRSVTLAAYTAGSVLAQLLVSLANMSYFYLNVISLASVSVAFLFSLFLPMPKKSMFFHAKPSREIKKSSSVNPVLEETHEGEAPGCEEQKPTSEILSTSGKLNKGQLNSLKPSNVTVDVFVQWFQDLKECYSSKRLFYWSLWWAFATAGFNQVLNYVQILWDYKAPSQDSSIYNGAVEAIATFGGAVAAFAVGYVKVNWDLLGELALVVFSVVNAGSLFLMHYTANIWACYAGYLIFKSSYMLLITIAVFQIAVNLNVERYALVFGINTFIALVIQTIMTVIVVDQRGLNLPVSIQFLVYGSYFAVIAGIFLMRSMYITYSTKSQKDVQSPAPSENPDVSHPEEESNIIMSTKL

Results are given in words; binding and its absence hold for the method and conditions named.

Turning to “human thiamine transporter SLC19A3, wildtype (from UniProt Q9BZV2 1-496)”, the binding entry is given as “no binding”.
